Values from PubChem BioAssay AID686938 (Drosophila RNAi Screening Center, 2013).

Purpose: 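Looking for CRAC channel components and the factors controlling them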 (primary screen)
System: Drosophila S2R+ cells
Knock-down reagent: long dsRNA against Drosophila genes, about 0.25 µg dsRNA per well, roughly 10,000 cells
Timing: 5 days of knock-down before the calcium assay
Treatment: thapsigargin (SERCA pump blocker) to empty calcium stores; entry signal taken 4 min after adding it
Read-out: 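Per-well fluo-4 fluorescence in two replicates, unnormalised, measured in resting cells and 4 min after store depletion by the SERCA blocker thapsigargin; ratio of the two present in few wells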
Scale: calcium entry signal: higher = stronger calcium signal after store depletion; entry to resting ratio: higher = more calcium entry relative to resting level; resting calcium signal: higher = higher resting calcium signal
Active means: 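Called when the plate z-score of the entry-to-rest ratio, mean of duplicates, falls below −3; wells with low overall dye signal (Fmax z below −2) or more than five off-targets excluded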
Meaning of the calls: active = strongly reduced calcium entry; inactive = no strong reduction
In all, the deposit lists about 23,000 reagents; below is an unselected part of those that have a named target and a result. Of all reagents, 75 (0.33%) are marked active. 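Raw plate signals without normalisation; calls rest on plate z-scores that were not deposited; ratio present for only 364 wells.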 The numbers tell different reagents against one gene apart. A plus sign joins genes that one reagent is predicted to hit. The record does not give: the dose of the treatment.

| target gene | dsRNA no. | calcium entry signal, replicate 1 (fluorescence units) | calcium entry signal, replicate 2 (fluorescence units) | entry to resting ratio | resting calcium signal, replicate 1 (fluorescence units) | resting calcium signal, replicate 2 (fluorescence units) | Outcome |
| --- | --- | --- | --- | --- | --- | --- | --- |
| Ca-alpha1T (GeneID 31550) | 1 | 3.39e7 | 3.96e7 | – | 1.59e7 | 1.72e7 | inactive |
| Ca-alpha1T (GeneID 31550) | 2 | 3.00e7 | 4.47e7 | – | 1.48e7 | 2.37e7 | inactive |
| Ca-alpha1T (GeneID 31550) | 3 | 3.30e7 | 4.04e7 | – | 1.66e7 | 1.93e7 | inactive |
| Ca-alpha1T (GeneID 31550) | 4 | 3.66e7 | 4.14e7 | – | 1.86e7 | 1.85e7 | inactive |
| Ca-alpha1T (GeneID 31550) | 5 | 4.02e7 | 3.09e7 | – | 2.17e7 | 1.53e7 | inactive |
| Vps20 (GeneID 37581) | 1 | 3.31e7 | 2.99e7 | – | 1.78e7 | 1.56e7 | inactive |
| Muc12Ea (GeneID 32384) | 1 | 2.49e7 | 2.97e7 | – | 1.39e7 | 1.48e7 | inactive |
| CG17698 (GeneID 4379919) | 1 | 2.51e7 | 4.72e7 | – | 1.28e7 | 2.09e7 | inactive |
| Orc6 (GeneID 36017) | 1 | 3.53e7 | 3.72e7 | – | 1.86e7 | 1.63e7 | inactive |
| CG14017 (GeneID 33787) | 1 | 2.84e7 | 2.78e7 | – | 1.44e7 | 1.40e7 | inactive |
| CG33769 (GeneID 3772499) | 1 | 2.88e7 | 5.06e7 | – | 1.33e7 | 2.17e7 | inactive |
| CG2217 + CG42740 | 1 | 3.62e7 | 5.22e7 | – | 1.79e7 | 2.26e7 | inactive |
| CG33346 (GeneID 2768690) | 1 | 4.15e7 | 4.20e7 | – | 2.33e7 | 1.85e7 | inactive |
| CG32086 (GeneID 326195) | 1 | 3.27e7 | 4.26e7 | – | 1.57e7 | 1.92e7 | inactive |
| CG42869 + Sfp93F | 1 | 3.79e7 | 1.88e7 | – | 1.61e7 | 9.73e6 | inactive |
| Lsp1gamma (GeneID 38015) | 1 | 4.13e7 | 3.68e7 | – | 1.84e7 | 1.67e7 | inactive |
| Ntf-2 (GeneID 33078) | 1 | 6.65e7 | 2.96e7 | – | 5.92e7 | 1.62e7 | inactive |
| yellow-e2 (GeneID 41652) | 1 | 3.96e7 | 6.49e7 | – | 1.89e7 | 8.16e7 | inactive |
| Glys (GeneID 41823) | 1 | 3.38e7 | 5.03e7 | – | 1.58e7 | 1.92e7 | inactive |
| CG8578 (GeneID 32540) | 1 | 4.34e7 | 4.60e7 | – | 2.08e7 | 2.12e7 | inactive |
| CG18537 (GeneID 37094) | 1 | 4.80e7 | 6.58e7 | – | 2.06e7 | 3.07e7 | inactive |
| Enoph (GeneID 40630) | 1 | 3.33e7 | 1.85e7 | – | 1.49e7 | 9.33e6 | inactive |
| MED18 (GeneID 31140) | 1 | 3.08e7 | 4.83e7 | 2.1 | 1.47e7 | 1.94e7 | inactive |
| Naam (GeneID 42348) | 1 | 5.13e7 | 4.89e7 | – | 5.00e7 | 2.19e7 | inactive |
| loj (GeneID 38698) | 1 | 3.52e7 | 2.36e7 | – | 2.50e7 | 1.01e7 | inactive |
| Nufip (GeneID 40043) | 1 | 4.63e7 | 4.86e7 | – | 2.07e7 | 3.29e7 | inactive |
| CG16935 (GeneID 36540) | 1 | 3.59e7 | 3.42e7 | – | 1.89e7 | 1.58e7 | inactive |
| S-Lap7 (GeneID 36524) | 1 | 3.64e7 | 3.81e7 | – | 1.94e7 | 1.81e7 | inactive |
| tyn (GeneID 3354987) | 1 | 5.12e7 | 3.83e7 | – | 2.14e7 | 1.66e7 | inactive |
| CG12883 (GeneID 43326) | 1 | 2.34e7 | 4.04e7 | – | 1.32e7 | 1.79e7 | inactive |
| CG15263 (GeneID 34898) | 1 | 3.75e7 | 2.25e7 | – | 1.88e7 | 1.27e7 | inactive |
| Rsph4a (GeneID 37831) | 1 | 4.28e7 | – | – | 2.08e7 | – | inactive |
| mthl1 (GeneID 32637) | 1 | 2.88e7 | 3.77e7 | – | 1.52e7 | 1.72e7 | inactive |

Individual results from the entries so far.
For “Outcome”, CG32086 (GeneID 326195) has inactive
Rsph4a (GeneID 37831), Outcome → inactive
Under “Outcome”, tyn (GeneID 3354987) reads inactive
For “resting calcium signal, replicate 2 (fluorescence units)”, CG33346 (GeneID 2768690) has 1.85e7
CG33769 (GeneID 3772499), resting calcium signal, replicate 2 (fluorescence units) = 2.17e7
Value for Naam (GeneID 42348) in “resting calcium signal, replicate 1 (fluorescence units)”: 5.00e7

The list goes on:
| target gene | dsRNA no. | calcium entry signal, replicate 1 (fluorescence units) | calcium entry signal, replicate 2 (fluorescence units) | entry to resting ratio | resting calcium signal, replicate 1 (fluorescence units) | resting calcium signal, replicate 2 (fluorescence units) | Outcome |
| --- | --- | --- | --- | --- | --- | --- | --- |
| CG9316 (GeneID 35333) | 1 | 3.36e7 | 5.62e7 | – | 1.72e7 | 2.44e7 | inactive |
| Orc2 (GeneID 41703) | 1 | 3.11e7 | 3.46e7 | – | 1.33e7 | 1.54e7 | inactive |
| CG30356 (GeneID 246562) | 1 | 1.75e7 | 2.31e7 | – | 9.68e6 | 1.15e7 | inactive |
| S-Lap2 (GeneID 326209) | 1 | 2.75e7 | 3.39e7 | – | 1.42e7 | 1.59e7 | inactive |
| Obp56c (GeneID 170882) | 1 | 5.51e7 | 4.84e7 | – | 2.32e7 | 2.51e7 | inactive |
| Obp56c (GeneID 170882) | 2 | 3.65e7 | 6.39e7 | – | 1.83e7 | 3.38e7 | inactive |
| Pp1alpha-96A (GeneID 42922) | 1 | 3.73e7 | 4.14e7 | – | 2.08e7 | 1.82e7 | inactive |
| Pp1alpha-96A (GeneID 42922) | 2 | 3.33e7 | 3.47e7 | – | 1.76e7 | 1.67e7 | inactive |
| cac (GeneID 32158) | 1 | 4.64e7 | 5.54e7 | – | 2.08e7 | 2.57e7 | inactive |
| cac (GeneID 32158) | 2 | 3.70e7 | 4.07e7 | – | 1.73e7 | 1.83e7 | inactive |
| CG30380 (GeneID 246579) | 1 | 3.11e7 | 5.46e7 | – | 1.60e7 | 2.17e7 | inactive |
| CG13223 (GeneID 36190) | 1 | 2.45e7 | 3.24e7 | – | 1.33e7 | 1.41e7 | inactive |
| CG42537 (GeneID 8674074) | 1 | 2.84e7 | 2.84e7 | – | 1.41e7 | 1.52e7 | inactive |
| Jhe (GeneID 36780) | 1 | 4.53e7 | 4.69e7 | – | 2.00e7 | 2.15e7 | inactive |
| Idgf4 (GeneID 31926) | 1 | 3.44e7 | 4.90e7 | – | 1.75e7 | 2.28e7 | inactive |
| Blos3 (GeneID 5740347) | 1 | 3.42e7 | 3.23e7 | – | 1.68e7 | 1.61e7 | inactive |
| CG34430 (GeneID 5740489) | 1 | 3.74e7 | 3.11e7 | – | 1.75e7 | 1.54e7 | inactive |
| CG5928 (GeneID 31539) | 1 | 4.00e7 | 4.86e7 | – | 1.94e7 | 2.49e7 | inactive |
| mRpL38 (GeneID 32375) | 1 | 2.84e7 | 3.21e7 | – | 1.33e7 | 1.44e7 | inactive |
| PGAP5 (GeneID 34116) | 1 | 3.06e7 | 4.11e7 | – | 1.42e7 | 1.62e7 | inactive |
| Frq2 (GeneID 32799) | 1 | 3.25e7 | 3.52e7 | – | 1.73e7 | 1.64e7 | inactive |
| CG7579 (GeneID 39714) | 1 | 3.92e7 | 5.21e7 | – | 1.91e7 | 2.24e7 | inactive |
| tio (GeneID 44272) | 1 | 3.00e7 | 4.24e7 | – | 1.38e7 | 1.73e7 | inactive |
| CR34254 (GeneID 5740610) | 1 | 4.14e7 | 3.03e7 | – | 2.09e7 | 1.38e7 | inactive |
| CG18368 (GeneID 36519) | 1 | 3.35e7 | 4.14e7 | – | 1.80e7 | 2.01e7 | inactive |
| BEAF-32 (GeneID 36645) | 1 | 4.06e7 | 4.80e7 | – | 1.75e7 | 2.22e7 | inactive |
| CG10165 (GeneID 35242) | 1 | 3.58e7 | – | – | 1.94e7 | – | inactive |
| tou (GeneID 36241) | 1 | 2.68e7 | 3.09e7 | – | 1.07e7 | 1.40e7 | inactive |
| tou (GeneID 36241) | 2 | 4.15e7 | 2.89e7 | – | 1.66e7 | 1.09e7 | inactive |
| Arr1 (GeneID 35078) | 1 | 5.03e7 | 3.50e7 | – | 2.05e7 | 1.50e7 | inactive |
| CG5888 (GeneID 34980) | 1 | 3.29e7 | – | – | 1.78e7 | – | inactive |
| Or63a (GeneID 38354) | 1 | 4.39e7 | 3.75e7 | – | 2.17e7 | 1.72e7 | inactive |
| CG42246 (GeneID 7354415) | 1 | 3.02e7 | 4.13e7 | – | 1.40e7 | 1.73e7 | inactive |
| synr (GeneID 33702) | 1 | 2.68e7 | 3.07e7 | – | 1.32e7 | 1.24e7 | inactive |
| CG42327 (GeneID 41401) | 1 | 3.61e7 | 3.49e7 | – | 1.85e7 | 1.73e7 | inactive |
| CG42327 (GeneID 41401) | 2 | 3.65e7 | 4.02e7 | – | 1.76e7 | 1.83e7 | inactive |
| CG42327 (GeneID 41401) | 3 | 3.62e7 | 3.76e7 | – | 1.72e7 | 1.65e7 | inactive |
| e (GeneID 42521) | 1 | 4.54e7 | 3.84e7 | – | 2.29e7 | 1.77e7 | inactive |
| CG14454 (GeneID 40482) | 1 | 2.04e7 | 3.64e7 | – | 1.08e7 | 1.57e7 | inactive |
| Spt (GeneID 35889) | 1 | 2.60e7 | 2.62e7 | – | 1.25e7 | 1.12e7 | inactive |
| glob1 (GeneID 41930) | 1 | 1.92e7 | 2.03e7 | – | 1.03e7 | 9.37e6 | inactive |
| beat-Va (GeneID 41578) | 1 | 3.88e7 | 2.92e7 | – | 1.82e7 | 1.45e7 | inactive |
